The values that follow come from US20250073244A1, “CRYSTALLINE FORMS OF PENTAAZA MACROCYCLIC RING COMPLEX” (Galera Labs, LLC, priority 2023, published 2025).

Data set [1] can be described thus: Equilibration with solvents at 25° C. Set-up: key to DSC/TGA if XRPD changes: −: No change detected.; +: Change detected.; //: Not carried out. The procedure:
About 50 mg of drug substance was equilibrated in suitable amount of solvent at 25° C. for 2 weeks with a stirring plate (Table 30). Obtained suspension was filtered. The solid part (wet cake) was investigated by XRPD. When differences were observed, additional investigations were performed (e.g. DSC, TGA. FT-IR, PLM/SEM, etc.).
[…] The solid part (wet cake) was investigated by XRPD. If differences are observed, additional investigation will be performed (e.g. DSC, TGA, HPLC, etc.)

Data set [2] in a line: Precipitation by addition of anti-solvent. Set-up: key: −: No change detected.; +: Change detected.; //: Not carried out. As to conditions: anti-solvent Heptane. The method, then:
About 50 mg of drug substance was dissolved in a good solvent. Anti-solvent was added into the obtained solutions slowly. Precipitates were collected by filtration. The solid part (wet cake) was investigated by XRPD. When differences were observed, additional investigations were performed (e.g. DSC, TGA. FT-IR, PLM/SEM, etc.).
Scale up: About 200 mg of drug substance was dissolved in EtOAc. Heptane was added to the obtained solutions. The solid part (wet cake) was investigated by XRPD. When differences were observed, additional investigations were performed (e.g. DSC, TGA. FT-IR, PLM/SEM, etc.)

Data set [3] in a line: Crystallization at room temperature by slow evaporation. More on the design: key to DSC/TGA if XRPD changes: −: No change detected.; +: Change detected.; //: Not carried out. The method, then:
Combined with approximate solubility experiment, solubility samples were filtered by 0.45 μm nylon filter. Obtained solutions were slow evaporated at ambient condition. Solid residues were examined for their polymorphic form (Table 34).
Scale up: About 200 mg of drug substance will be dissolved in EtOAc. Obtained solutions shall be exposed to ambient condition (protected by N2) to allow slow evaporation of solvents (Table 35).

Data set [4] can be described thus: Crystallization from hot saturated solutions by slow cooling. To be noted: slow cooling 50° C. to 5° C. at 0.1° C./min. The procedure:
Approximate 100 mg of drug substance was dissolved in the minimal amount of selected solvents at 50° C. Obtained solutions were cooled to 5° C. at 0.1° C./min. Precipitates were collected by filtration. The solid part (wet cake) was investigated by XRPD. When differences were observed, additional investigations were performed (e.g. DSC, TGA. FT-IR, PLM/SEM, etc.).
Scale up: About 200 mg of drug substance will be dissolved in MEK. Obtained solutions will be applied with cooling rate of 0.1° C./min for slow cooling.

Data set [5] in a line: Crystallization from hot saturated solutions by fast cooling. More on the design: key to DSC/TGA if XRPD changes: −: No change detected.; +: Change detected.; //: Not carried out. As to conditions: fast cooling from 50° C. (ice bath). The procedure:
Approximate 100 mg of drug substance was dissolved in the minimal amount of selected solvents at 50° C. Obtained solutions were put into an ice bath. Precipitates were collected by filtration. The solid part (wet cake) was investigated by XRPD. When differences were observed, additional investigations were performed (e.g. DSC, TGA. FT-IR, PLM/SEM, etc.). When no precipitation was obtained, the solutions were put in −20° C. freezer for crystallization.

Data set [6] is described as follows: Scale up experiment of Pattern A and Pattern D. The method, then: About 6 g API were used for Pattern A and Pattern D scale up.
Obtained suspension was filtered. The solid part (wet cake) was investigated by XRPD.
About 3 g drug substance were equilibrated in 8 mL of solvent (Water: Acetone, 10:90, v:v) at 25° C. for 1 week with a stirring plate. Obtained suspension was filtered. The solid part (wet cake) was investigated by XRPD.

A short description of data set [7]: Generation of GC4711 Forms (solvent experiments other than diethyl ether trituration, form by XRPD).
Setting [8] is: 5 days, protected by N2, Heptane.
Setting [9] is: slow evaporation at ambient condition, DCM.
The mark [10] stands for this setting: slow evaporation at ambient condition, EtOAc.
Where [11] appears, read: slow evaporation at ambient condition, IPAC.
The mark [12] stands for this setting: slow evaporation at ambient condition, Toluene.
Where [13] appears, read: slow evaporation, protect with N2, Acetone.
[14] abbreviates: slow evaporation, protect with N2, MTBE.
Where [15] appears, read: slow evaporation, protect with N2, THF.

With `CCC(=O)[O][Mn][O]C(=O)CC.c1cc2nc(c1)CN[C@H]1CCCC[C@@H]1NCCN[C@H]1CCCC[C@@H]1NC2` [API], the “DSC/TGA if XRPD changes” value in data set [1] (2 weeks, Heptane) was “−”; in data set [1] (setting [8]), “−”; in data set [2] (solvent Acetone), “−”; in data set [2] (solvent EtOAc) it was “−”; in data set [2] (solvent IPA) it was “−”; in data set [2] (solvent MEK), “−”. Further, the “DSC/TGA if XRPD changes” value in data set [2] (solvent THF), in data set [3] (setting [9]), in data set [3] (setting [10]), in data set [3] (setting [11]), in data set [3] (setting [12]) and in data set [3] (setting [13]) was “−” each time. Also, the “DSC/TGA if XRPD changes” value in data set [3] (setting [14]), in data set [3] (setting [15]), in data set [5] (EtOAc), in data set [5] (IPAC) and in data set [5] (MEK) was “−” throughout. Also, the XRPD entry in data set [1] (2 weeks, Heptane/EtOH, 80/20) is given as “Clear”; in data set [1] (2 weeks, Heptane/IPA, 80/20), “Clear”; in data set [1] (2 weeks, MTBE/EIOH, 80/20), “Clear”; in data set [1] (2 weeks, MTBE/IPA, 80/20), “Clear”; in data set [1] (2 weeks, Toluene) it was “Clear”; in data set [1] (setting [8]) it was “Pattern A”. Also, the XRPD result in data set [3] (setting [9]) was “Pattern A”; in data set [3] (setting [10]) it was “Pattern A”; in data set [3] (setting [11]), “Pattern A”; in data set [3] (setting [12]), “Pattern A”; in data set [3] (slow evaporation at ambient condition, Water), “Clear”; in data set [3] (setting [13]) it was “Pattern A”. Also, the XRPD entry in data set [3] (slow evaporation, protect with N2, DCM) was “Pattern B”; in data set [3] (slow evaporation, protect with N2, EtOAc), “Pattern B”; in data set [3] (slow evaporation, protect with N2, Ethanol), “Pattern C^LC”; in data set [3] (slow evaporation, protect with N2, IPA), “Pattern C^LC”; in data set [3] (slow evaporation, protect with N2, IPAC), “Pattern B”; in data set [3] (slow evaporation, protect with N2, MEK), “Pattern B”. For the same compound, the XRPD result in data set [3] (setting [14]) was “Pattern A”; in data set [3] (setting [15]), “Pattern A”; in data set [4] (Acetone), “Clear”; in data set [4] (EtOAc), “Pattern B”; in data set [4] (IPA), “Clear”; in data set [4] (IPAC) it was “Clear”. Moreover, the XRPD entry in data set [4] (MEK) is reported as “Pattern B”; in data set [4] (Water), “Clear”; in data set [5] (Acetone) it was “Clear”; in data set [5] (EtOAc) it was “Pattern A”; in data set [5] (IPA) it was “Clear”; in data set [5] (IPAC), “Pattern A”. For the same compound, the XRPD result in data set [5] (MEK) is reported as “Pattern A”; in data set [5] (Water) it was “Clear”; in data set [6] (Anti-solvent, EtOAc-Heptane) it was “Pattern A”; in data set [6] (Equilibration, Water:Acetone(1:99, v:v), protected by N2, 10 days), “Pattern A”; in data set [6] (Equilibration, Water:Acetone(10:90, v:v), protected by N2, 10 days) it was “Pattern D”; in data set [6] (Slow cooling, MEK) it was “Pattern B”. Moreover, in data set [6] (Slow evaporation, EtOAc), the XRPD entry is “Gel”.

Turning to `CCC(=O)[O][Mn][O]C(=O)CC.c1cc2nc(c1)CN[C@H]1CCCC[C@@H]1NCCN[C@H]1CCCC[C@@H]1NC2` [Sample 8429-39-02], in data set [7] (acetone, 51 mg/0.2 mL, ambient 5 min., evaporated under N2 while vial warmed), the “Result (form)” value is recorded as “E + A”.

With `CCC(=O)[O][Mn][O]C(=O)CC.c1cc2nc(c1)CN[C@H]1CCCC[C@@H]1NCCN[C@H]1CCCC[C@@H]1NC2` [Sample 8429-79-02], the “Result (form)” value in data set [7] (EtOAc/wet, 8429-79-01 filtrate, fast evaporation) is listed as “A + E”.
